Measured values from patent US20240294634A1.
Residue numbers refer to the chain shown, from its start. No constants are given. Whether binding was seen depends on the method and setting. Some entries that bind do so weakly or less than the wild type.

The chains behind the UniProt entries cited, without tags or fusion partners. Residues count along the entry.
UniProt Q8NHL6, residues 24-458: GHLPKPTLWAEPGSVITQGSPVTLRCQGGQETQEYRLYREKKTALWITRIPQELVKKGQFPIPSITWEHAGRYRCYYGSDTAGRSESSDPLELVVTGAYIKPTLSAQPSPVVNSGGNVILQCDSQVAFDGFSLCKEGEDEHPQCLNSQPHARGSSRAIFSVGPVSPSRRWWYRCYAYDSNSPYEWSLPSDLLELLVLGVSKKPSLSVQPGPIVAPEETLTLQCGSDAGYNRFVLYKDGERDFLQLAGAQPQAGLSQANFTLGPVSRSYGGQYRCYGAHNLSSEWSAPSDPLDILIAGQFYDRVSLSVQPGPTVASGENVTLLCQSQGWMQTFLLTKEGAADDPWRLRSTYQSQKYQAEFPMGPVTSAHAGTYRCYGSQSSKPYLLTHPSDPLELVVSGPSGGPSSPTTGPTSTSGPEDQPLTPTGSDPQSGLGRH

B1: 3H5 (antibody, human IgG1, V domains shown)
VH: QVQLKESGPGLVAPSQSLSITCTVSGFSLTSYGVSWVRQPPGKGLEWLGVIWGDGSTNYHSALISRLSISKDNSKSQVFLKLNSLQTDDTATYYCAKPRWDDYAMDYWGQGTSVTVSS
VL: DIQMTQTTSSLSASLGDRVTISCRASQDISNYLNWYQQKPDGTVKLLIYYTSRLHSGVPSRFSGSGSGTDYSLTISNLEQEDIATYFCQQGNTLWTFGGGTKLEIK
B2: 27C10 (antibody, human IgG1, V domains shown)
VH: EVQLQESGPGLVKPSQSLSLTCSVTGYSITSGYYWNWIRQFPENKLEWMGYIRYDGSNNYNPSLNNRISITRDASKNQFFLKLNSVTTEDTATYYCARGWLLWFYAVDYWGQGTSVTVSS
VL: DVVMTQTPLSLPVSLGDQASISCRSSQSIVHTNGNTYLEWYLQKSGQSPKLLIYKVSNRLSGVPDRFSGSGSGTDFTLKISRVEAEDLGIYYCFQGSHVPWTFGGGTKLEIK
B3: 18E1 (antibody, human IgG1, V domains shown)
VH: QVQLQQSGAELVKPGASVRLSCKASGYTFTAHTIHWVKQRSGQGLEWIGWLYPGSGSIKYNEKFKDKATLTADKSSSTVYMELSRLTSEDSAVYFCARHTNWDFDYWGQGTTLTVSS
VL: NIVLTQSPASLAVSLGQRATISCKASQSVDYGGASYMNWYQQKPGQPPKLLIYAASNLESGIPARFSGSGSGTDLTLNIHPVEEEDAAMYYCQQSNEEPWTFGGGTKLEIK
B4: 26D8 (antibody, human IgG1, V domains shown)
VH: B3 VH with R19K, A31E, V37I, L51F, I58M, S84T
VL: B3 VL with N1D, A34D, E85D
B5: 12D12 (antibody, human IgG1, V domains shown)
VH: QVQLQQPGAELVKPGASVRMSCKASGYTFTSYWVHWVKQRPGQGLEWIGVIDPSDSYTSYNQNFKGKATLTVDTSSKTAYIHLSSLTSEDSAVYFCARGERYDGDYFAMDYWGQGTSVTVSS
VL: DIVMTQSPASLSVSVGETVTITCRASENIYSNLAWYQQKQGKSPQLLVYAATNLADGVPSRFSGSRSGTQYSLKINSLQSEDFGTYYCQHFWNTPRTFGGGTKLEIK
B6: 27H5 (antibody, human IgG1, V domains shown)
VH: QVQLKESGPGLVAPSQSLSITCTVSGFSLTSYGVSWVRQPPGKGLEWLGVIWGDGNTNYHSALISRLSISKDNSKSQVFLKLNSLQTDDTATYYCARTNWDGWFAYWGQGTLVTVSA
VL: DIVMTQSHKFMSTSVGDRVSITCKASQDVGTAVAWYQQKPGQSPKLLIYWASTRHTGVPDRFTGSGSGTDFTLTISNVQSEDLADYFCQQYRSYPLGTFGGGTKLEIK
B7: 2H2A (antibody, V domains shown)
VH: EVKLEESGPELVKPGASVKLSCKASGYTFTNYYMQWVKQRPGQGLEWIGWIFPGSGESSYNEKFKGKATLSADTSSTTAYMQLSSLTSEDSAVYFCARTWNYDARWGYWGQGTTLTVSS
VL: DILMTQSPASLAVSLGQRATISCIPSESIDSYGISFMHWYQQKPGQPPKLLIYRASNLESGIPARFSGSGSRTDFTLTINPVEADDVATYYCQQSNEDPFTFGSGTKLELK

The binders below were run against Human ILT-2 (complete form) expressed at the cell surface (human) (UniProt Q8NHL6) (assay: flow cytometry titration on cells transfected with wild-type ILT2 (WT)).

| binding | Binder |
| --- | --- |
| binds | B1 |
| binds | B2 |
| binds | B3 |
| binds | B4 |
| binds | B5 |
| binds | B6 |

These binders were tested against ILT2 D4 domain protein at the cell surface (human) (UniProt Q8NHL6) (assay: flow cytometry on CHO cells expressing the ILT2 D4 domain protein).

| binding | Binder |
| --- | --- |
| binds | B2 |
| binds | B3 |
| binds | B4 |

The binders below were run against ILT2 D4 domain protein at the cell surface (human) (UniProt Q8NHL6) (assay: flow cytometry, CHO cells with anchored ILT2 fragment).

| binding | Binder |
| --- | --- |
| binds | B2 |
| binds | B3 |
| binds | B4 |

These binders were tested against ILT2 D3-D4 domain protein at the cell surface (human) (UniProt Q8NHL6) in the same assay as above.

| binding | Binder |
| --- | --- |
| binds | B2 |
| binds | B3 |
| binds | B4 |

These binders were tested against ILT2 D2-D3-D4 domain protein at the cell surface (human) (UniProt Q8NHL6) in the same assay as above.

| binding | Binder |
| --- | --- |
| binds | B2 |
| binds | B3 |
| binds | B4 |

Each binder was assayed against BirA-tagged ILT2 protein, biotinylated, tetramerised on APC-conjugated streptavidin (UniProt Q8NHL6) (assay: flow cytometry blocking assay: antibody pre-incubated with ILT2-streptavidin tetramers, then added to HLA-G or HLA-A2 expressing cells; blocked ligands HLA-G and HLA-A2; antibody concentration not given).

| binding | Binder |
| --- | --- |
| binds | B3 |
| binds | B4 |
| binds | B5 |

These binders were tested against Human ILT-2 (complete form) expressed at the cell surface (human) (UniProt Q8NHL6) (assay: flow cytometry, ILT2 point mutation study).

| binding | Binder |
| --- | --- |
| binds | B1 |
| binds | B2 |
| binds | B7 |
| binds | B3 |
| binds | B4 |
| binds | B5 |
| binds | B6 |
